Measurements reported in PubChem BioAssay AID686938 (Drosophila RNAi Screening Center, 2013).

Purpose: 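Fly genes required for calcium entry once internal stores are emptied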 (primary screen)
Cell system: Drosophila S2R+ cells
Knock-down reagent: long dsRNA against Drosophila genes, about 0.25 µg dsRNA per well, roughly 10,000 cells
Time to read-out: 5 days of knock-down before the calcium assay
Conditions: thapsigargin (SERCA pump blocker) to empty calcium stores; entry signal taken 4 min after adding it
Detection: 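Per-well fluo-4 fluorescence in two replicates, unnormalised, measured in resting cells and 4 min after store depletion by the SERCA blocker thapsigargin; ratio of the two present in few wells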
Reading the numbers: calcium entry signal: higher = stronger calcium signal after store depletion; resting calcium signal: higher = higher resting calcium signal
Hit rule: 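Hit if the duplicate-averaged plate z-score for entry over resting signal is under −3; wells with weak total dye signal (Fmax z < −2) or more than 5 off-targets removed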
Meaning of the calls: active = strongly reduced calcium entry; inactive = no strong reduction
The screen tested about 23,000 reagents; shown is a random part of those with a known target gene and a result. Over the whole deposit, 75 (0.33%) got an active call. 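Raw plate signals without normalisation; calls rest on plate z-scores that were not deposited; ratio present for only 364 wells.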 The numbers tell different reagents against one gene apart. A plus sign joins genes that one reagent is predicted to hit. No sequences are given here. Not given: the dose of the treatment.

gene knocked down | reagent no. | calcium entry signal, replicate 1 (fluorescence units) | calcium entry signal, replicate 2 (fluorescence units) | resting calcium signal, replicate 1 (fluorescence units) | resting calcium signal, replicate 2 (fluorescence units) | call
CG32767 | 1 | 4.19e7 | 3.33e7 | 2.03e7 | 1.56e7 | inactive
CG15209 | 1 | 5.34e7 | 4.12e7 | 2.22e7 | 1.72e7 | inactive
CG12491 + CG34105 | 1 | 2.34e7 | 3.79e7 | 1.21e7 | 1.54e7 | inactive
CG12491 + CG34105 | 2 | 3.75e7 | 5.01e7 | 2.03e7 | 2.38e7 | inactive
CG8483 | 1 | 4.09e7 | 4.84e7 | 1.68e7 | 2.03e7 | inactive
CG33271 | 1 | 3.42e7 | 4.94e7 | 2.08e7 | 2.65e7 | inactive
Rbp9 | 1 | 2.54e7 | 2.46e7 | 1.26e7 | 1.24e7 | inactive
Rbp9 | 2 | 4.14e7 | – | 1.76e7 | – | inactive
CG33722 + CG18749 | 1 | 3.30e7 | 4.16e7 | 1.56e7 | 1.88e7 | inactive
CG33722 + CG18749 | 2 | 5.51e7 | 3.74e7 | 2.61e7 | 1.83e7 | inactive
COX5BL | 1 | 2.91e7 | 2.55e7 | 1.49e7 | 1.33e7 | inactive
Cp7Fc | 1 | 2.87e7 | 4.05e7 | 1.50e7 | 1.94e7 | inactive
CG6675 | 1 | 4.91e7 | 5.39e7 | 2.39e7 | 2.37e7 | inactive
CG5265 | 1 | 2.99e7 | 5.67e7 | 1.42e7 | 6.87e7 | inactive

3 entries from above in another layout.
{"gene knocked down":"CG8483","reagent no.":1,"calcium entry signal, replicate 1 (fluorescence units)":4.09e7,"calcium entry signal, replicate 2 (fluorescence units)":4.84e7,"resting calcium signal, replicate 1 (fluorescence units)":1.68e7,"resting calcium signal, replicate 2 (fluorescence units)":2.03e7,"call":"inactive"}
{"gene knocked down":"CG33271","reagent no.":1,"calcium entry signal, replicate 1 (fluorescence units)":3.42e7,"calcium entry signal, replicate 2 (fluorescence units)":4.94e7,"resting calcium signal, replicate 1 (fluorescence units)":2.08e7,"resting calcium signal, replicate 2 (fluorescence units)":2.65e7,"call":"inactive"}
{"gene knocked down":"Rbp9","reagent no.":1,"calcium entry signal, replicate 1 (fluorescence units)":2.54e7,"calcium entry signal, replicate 2 (fluorescence units)":2.46e7,"resting calcium signal, replicate 1 (fluorescence units)":1.26e7,"resting calcium signal, replicate 2 (fluorescence units)":1.24e7,"call":"inactive"}

Continued:
gene knocked down | reagent no. | calcium entry signal, replicate 1 (fluorescence units) | calcium entry signal, replicate 2 (fluorescence units) | resting calcium signal, replicate 1 (fluorescence units) | resting calcium signal, replicate 2 (fluorescence units) | call
Kap-alpha1 | 1 | 3.01e7 | 4.48e7 | 1.52e7 | 2.04e7 | inactive
DMAP1 | 1 | 3.65e7 | 3.42e7 | 2.31e7 | 2.29e7 | active
CG15353 | 1 | 2.21e7 | 6.44e7 | 1.13e7 | 3.30e7 | inactive
CG11374 | 1 | 5.70e7 | 5.62e7 | 2.45e7 | 2.42e7 | inactive
CG1503 | 1 | 3.16e7 | 3.53e7 | 1.48e7 | 1.61e7 | inactive
rho-4 | 1 | 3.43e7 | 4.14e7 | 1.65e7 | 1.95e7 | inactive
rho-4 | 2 | 3.62e7 | 5.23e7 | 1.84e7 | 2.47e7 | inactive
Eig71Ee | 1 | 4.18e7 | 4.12e7 | 1.76e7 | 1.45e7 | inactive
ND-SGDH | 1 | 3.73e7 | 3.78e7 | 2.03e7 | 1.51e7 | inactive
sov | 1 | 3.53e7 | 3.85e7 | 1.65e7 | 1.81e7 | inactive
